This assay concerns the target Sirt5, stably overexpressed in RAW264.7 cells (mouse (cDNA of the murine cell line RAW264.7)) (UniProt Q8K2C6). The experiment in a line: affinity purification with mass spectrometry; co-immunoprecipitation and mass spectrometry from RAW264.7 cells stably overexpressing Sirt5, mock RAW264.7 cells as control.

Sequences of proteins named here, by UniProt entry; tags and fusion partners are left off. Residues count along the entry.
UniProt Q8K2C6, residues 37-310: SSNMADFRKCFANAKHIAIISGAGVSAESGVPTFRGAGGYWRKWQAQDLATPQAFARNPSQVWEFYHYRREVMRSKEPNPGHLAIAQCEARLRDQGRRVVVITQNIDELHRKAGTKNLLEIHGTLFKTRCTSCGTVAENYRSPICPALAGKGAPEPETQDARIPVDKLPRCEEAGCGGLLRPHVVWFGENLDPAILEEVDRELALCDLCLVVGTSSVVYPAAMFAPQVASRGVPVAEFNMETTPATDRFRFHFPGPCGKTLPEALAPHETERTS
UniProt Q62167: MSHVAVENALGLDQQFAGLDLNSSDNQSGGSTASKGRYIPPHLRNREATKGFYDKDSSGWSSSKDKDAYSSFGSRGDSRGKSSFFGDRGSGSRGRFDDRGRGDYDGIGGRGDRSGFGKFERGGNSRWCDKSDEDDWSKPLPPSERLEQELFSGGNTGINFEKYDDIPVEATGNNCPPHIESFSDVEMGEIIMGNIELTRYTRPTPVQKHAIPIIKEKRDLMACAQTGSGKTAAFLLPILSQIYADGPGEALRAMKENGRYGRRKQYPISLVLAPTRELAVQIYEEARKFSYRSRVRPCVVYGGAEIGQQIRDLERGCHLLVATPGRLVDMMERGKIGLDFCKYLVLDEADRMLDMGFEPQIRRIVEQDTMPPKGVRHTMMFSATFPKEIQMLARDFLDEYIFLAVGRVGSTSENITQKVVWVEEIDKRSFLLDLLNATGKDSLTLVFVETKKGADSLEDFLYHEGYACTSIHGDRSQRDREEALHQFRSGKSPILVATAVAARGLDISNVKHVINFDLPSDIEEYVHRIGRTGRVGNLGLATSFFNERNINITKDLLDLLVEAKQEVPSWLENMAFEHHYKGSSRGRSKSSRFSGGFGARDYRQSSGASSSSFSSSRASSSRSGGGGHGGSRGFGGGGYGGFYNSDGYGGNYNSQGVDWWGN

These are yes or no findings as the source states them, for the method shown. Binding seen in cells or lysates may run through a third protein. Here binding means that the protein was enriched with, or labelled near, the bait; the list need not be complete.

Turning to “DDX3, endogenous in RAW264.7 cells (from UniProt Q62167 1-662)”, the binding entry is reported as “binds”.

The record behind these values is publication PMC8210596.
